# Assay results published in paper PMC5996148.
# Where “and” joins values, the source holds several entries; their conditions need not be identical. Identical values can stand only once. Some of the results follow.
# Tests used:
# Experiment in all cases: protein microarray (ProtoArray v5.0), streptavidin-Alexa Fluor 647
# Conditions in all cases: 3'-biotin; 20 mM Tris (pH 7.5), 5 mM MgCl2, 100 mM KCl, 0.1% Tween-20, A/T-rich and random oligonucleotide blockers; temperature not stated; high values mean tight binding
# Protein BEAN (human) = system: Protein BEAN (human)
# Protein BEX5 (human) = system: Protein BEX5 (human)
# Protein CBFA2T1 (human) = system: Protein CBFA2T1 (human)
# Protein DGCR6L (human) = system: Protein DGCR6L (human)
# Protein Dr1 (human) = system: Protein Dr1 (human)
# Protein FAM63B (human) = system: Protein FAM63B (human)
# Protein NOXP20 (human) = system: Protein NOXP20 (human)
# Protein Niban (human) = system: Protein Niban (human)
# Protein OSCP1 (human) = system: Protein OSCP1 (human)
# Protein PPRC1 (human) = system: Protein PPRC1 (human)
# Protein TEX261 (human) = system: Protein TEX261 (human)
# Protein reprimo (human) = system: Protein reprimo (human)
# Protein shisa-4 (human) = system: Protein shisa-4 (human)
# [1] = system: Protein transport protein Sec61 subunit alpha isoform 1 (human)
# [2] = system: Protein transport protein Sec61 subunit beta (human)
# [3] = system: Protein tyrosine phosphatase receptor type C-associated protein (human)
# [4] = system: Putative ATP-dependent Clp protease proteolytic subunit, mitochondrial (human)
# [5] = system: Putative adenylate kinase 7 (human)
# [6] = system: Putative elongation factor 1-delta-like protein (human)
# [7] = system: Putative protein phosphatase inhibitor 2-like protein 3 (human)
sequence,measurement,setting,value
GGGGACAGGGGTATGGGGAGGGG [G4-3 biotinylated (CtG)],binding signal,Protein BEAN (human),-0.313 z-score
same,binding signal,Protein BEX5 (human),-0.341 z-score
same,binding signal,Protein CBFA2T1 (human),-0.325 z-score
same,binding signal,Protein DGCR6L (human),-0.344 z-score
same,binding signal,Protein Dr1 (human),-0.303 z-score
same,binding signal,Protein FAM63B (human),-0.326 z-score
same,binding signal,Protein NOXP20 (human),-0.332 z-score
same,binding signal,Protein Niban (human),-0.319 z-score
same,binding signal,Protein OSCP1 (human),-0.331 z-score
same,binding signal,Protein PPRC1 (human),-0.334 z-score and -0.342 z-score
same,binding signal,Protein TEX261 (human),-0.322 z-score
same,binding signal,Protein reprimo (human),-0.303 z-score
same,binding signal,Protein shisa-4 (human),-0.324 z-score
same,binding signal,[1],-0.312 z-score
same,binding signal,[2],4.18 z-score
same,binding signal,[3],-0.334 z-score
same,binding signal,[4],-0.334 z-score
same,binding signal,[5],-0.341 z-score
same,binding signal,[6],-0.327 z-score
same,binding signal,[7],-0.338 z-score
